This is one part of the list. Part of the spread comes from offsets between plates or batches.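 The clonal Drosophila S2 line carries Smoothened with a circularly permuted GFP inserted in its cytoplasmic tail, which fluoresces once Hh-driven phosphorylation opens an inhibitory loop. Per-cell fluorescence was read by flow cytometry, scaled to Hh-stimulated untreated cells. Hits were groups of inhibitors sharing pathway targets that shifted fluorescence consistently, not single compounds.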

The source of these data is the supplement of paper PMC5662767.

This test relates to Drosophila S2 cl14 SmoIP sensor cells. Description: normalized SmoIP GFP fluorescence (untreated unstimulated = 0%, untreated Hh-stimulated = 100%); higher = more Smo activation sensor fluorescence. The conditions noted are these: compound concentration: 15 uM, 24 h.
[1] abbreviates: stimulation: Hh conditioned medium (+Hh).
The mark [2] stands for this setting: stimulation: mock conditioned medium (-Hh).

As to `COC[C@H](NC(=O)c1cnc(C)s1)C(=O)N[C@@H](COC)C(=O)N[C@@H](Cc1ccccc1)C(=O)[C@@]1(C)CO1` [oprozomib-onx-0912], the “normalized SmoIP GFP fluorescence” value is, setting by setting: under setting [1], 86.4%; under setting [2], 39.5%.

As for `NC(N)=N/N=C/c1c(Cl)cccc1Cl` [guanabenz-wy-8678-acetate], the “normalized SmoIP GFP fluorescence” value is 113% under setting [1] and 0.247% under setting [2].

In the case of `CCC(CC)CC1(C(=O)Nc2ccccc2SC(=O)C(C)C)CCCCC1` [dalcetrapib-jtt-705], the “normalized SmoIP GFP fluorescence” value is, setting by setting: under setting [1], 130%; under setting [2], -0.297%.

Consider `Cn1cnc(N)c2ncnc1-2` [3-methyladenine], for which the “normalized SmoIP GFP fluorescence” value is 123% under setting [1] and -3.9% under setting [2].

Turning to `O=S(=O)(c1ccccc1)N(CC(F)(F)F)c1ccc(C(O)(C(F)(F)F)C(F)(F)F)cc1`, the “normalized SmoIP GFP fluorescence” value worked out at 119% under setting [1] and 17.5% under setting [2].

On to `O=C(NCc1cccc(O)c1)Nc1nc(-c2ccncc2)cs1`, for which the “normalized SmoIP GFP fluorescence” value runs as follows: under setting [1], 116%; under setting [2], -0.491%.

Consider `CC1(C)Cc2c(-c3ccccc3)c(-c3ccc(Cl)cc3)c(CC(=O)O)n2C1` [licofelone], for which the “normalized SmoIP GFP fluorescence” value under setting [1] came out at 137% and the “normalized SmoIP GFP fluorescence” value under setting [2] turned out to be 0.605%.

For the compound `Cc1nc(Nc2ncc(C(=O)Nc3c(C)cccc3Cl)s2)cc(N2CCN(CCO)CC2)n1` [Dasatinib], the “normalized SmoIP GFP fluorescence” value reads like this: under setting [1], 194%; under setting [2], 60.9%.
